Laboratory results from patent publication US6340573B1, “Chromogenic substrates for detecting bacterial hydrolases” (Bio Merieux, priority 1998, dated 2002).

Tested on: Alanine-aminopeptidase
Assay: GRAM identification with impregnated bottle brush
Type: cell-based, Gram-negative bacteria
Conditions: P. aeruginosa, of four (4) strains
Text: According to a representative example, the GRAM identification process uses a substrate based on aminobenzene or a derivative thereof, such as DiMethyl-paraPhenyleneDiamine (DMpPD). In the example which follows, the substrate consists of Alanine-Dimethyl-paraPhenyleneDiamine (AlaDMpPD).
It functions as follows. Enzymatic hydrolysis causes release of the DMpPD group. Next, the DMPD binds with α-naphthol (or a derivative) by oxidative coupling facilitated by an oxidizing agent, potassium ferricyanide (K3Fe(CN)6). This then causes formation of a violet-gray complex.
Another device has been defined, which is even more specific in Gram identification and which can also be used with blood agars of Columbia type. It consists of:
a medium consisting of a blood agar of Columbia type (with or without AlaDMpPD), and
a reaction mixture which impregnates a bottle brush and which is constituted on the basis of α-naphthol, potassium ferricyanide and AlaDMpPD and then dried.
This reaction mixture contained in the bottle brush was further improved by adding a step of drying the bottle brushes, which facilitates their subsequent manipulation.
The exact composition is as follows:
for the agar, presence or absence of AlaDMpPD at 0.075 gram per liter (g/l), and
α-naphthol from 0.01 to 5 g/l, preferably from 0.1 to 1 g/l, and for example 0.5 g/l, […]

Alanine-Dimethyl-paraPhenyleneDiamine [AlaDMpPD]
false negatives, number of strains: 2
